Binding data for one molecule are collected here from paper PMC11061230.

The chains behind the UniProt entries cited, without tags or fusion partners.
UniProt Q9UIH9: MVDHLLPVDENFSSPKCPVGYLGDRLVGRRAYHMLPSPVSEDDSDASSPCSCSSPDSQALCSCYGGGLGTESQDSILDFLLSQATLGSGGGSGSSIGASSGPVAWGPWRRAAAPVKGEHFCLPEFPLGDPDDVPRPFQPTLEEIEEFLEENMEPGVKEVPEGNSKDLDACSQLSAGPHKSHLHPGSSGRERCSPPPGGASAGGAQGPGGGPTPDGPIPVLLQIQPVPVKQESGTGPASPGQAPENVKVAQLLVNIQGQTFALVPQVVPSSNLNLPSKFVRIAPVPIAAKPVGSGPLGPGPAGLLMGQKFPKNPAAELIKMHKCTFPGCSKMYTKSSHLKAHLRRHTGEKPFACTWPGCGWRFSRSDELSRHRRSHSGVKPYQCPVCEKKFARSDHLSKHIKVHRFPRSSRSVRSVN

The assay concerns the target Flag-KLF15 (Krüppel-like factor 15) (UniProt Q9UIH9). As to the kind of experiment: affinity purification with mass spectrometry; HEK293T cells transfected with Flag-KLF15 (controls: pcDNA, Myc-KLF15) for 30 h, lysed in RIPA buffer with protease inhibitors; precipitated with ANTI-FLAG-M2 affinity gel; SDS-PAGE, silver staining, stained proteins excised for LC-MS/MS.

Results are given in words; binding and its absence hold for the method and conditions named. In cells and extracts the contact can be indirect. A yes stands for co-enrichment or nearness to the bait. Other partners may have been found.

B1: myocardin-related transcription factor B (MRTFB), endogenous in HEK293T (protein, UniProt Q9ULH7 1-1088)
chain: MIDSSKKQQQGFPEILTAGDFEPLKEKECLEGSNQKSLKEVLQLRLQQRRTREQLVDQGIMPPLKSPAAFHEQIKSLERARTENFLKHKIRSRPDRSELVRMHILEETFAEPSLQATQMKLKRARLADDLNEKIAQRPGPMELVEKNILPVDSSVKEAIIGVGKEDYPHTQGDFSFDEDSSDALSPDQPASQESQGSAASPSEPKVSESPSPVTTNTPAQFASVSPTVPEFLKTPPTADQPPPRPAAPVLPTNTVSSAKPGPALVKQSHPKNPNDKHRSKKCKDPKPRVKKLKYHQYIPPDQKGEKNEPQMDSNYARLLQQQQLFLQLQILSQQKQHYNYQTILPAPFKPLNDKNSNSGNSALNNATPNTPRQNTSTPVRKPGPLPSSLDDLKVSELKTELKLRGLPVSGTKPDLIERLKPYQEVNSSGLAAGGIVAVSSSAIVTSNPEVTVALPVTTLHNTVTSSVSTLKAELPPTGTSNATRVENVHSPLPISPSPSEQSSLSTDDTNMADTFTEIMTMMSPSQFLSSSPLRMTNNEDSLSPTSSTLSNLELDAAEKDRKLQEKEKQIEELKRKLEQEQKLVEVLKMQLEVEKRGQQQRPLEAQPSAPGHSVKSDQKHGSLGSSIKDEASLPDCSSSRQPIPVASHAVGQPVSTGGQTLVAKKAVVIKQEVPVGQAEQQSVVSQFYVSSQGQPPPAVVAQPQALLTTQTAQLLLPVSIQGSSVTSVQLPVGSLKLQTSPQAGMQTQPQIATAAQIPTAALASGLAPTVPQTQDTFPQHVLSQPQQVRKVFTNSASSNTVLPYQRHPAPAVQQPFINKASNSVLQSRNAPLPSLQNGPNTPNKPSSPPPPQQFVVQHSLFGSPVAKTKDPPRYEEAIKQTRSTQAPLPEISNAHSQQMDDLFDILIKSGEISLPIKEEPSPISKMRPVTASITTMPVNTVVSRPPPQVQMAPPVSLEPMGSLSASLENQLEAFLDGTLPSANEIPPLQSSSEDREPFSLIEDLQNDLLSHSGMLDHSHSPMETSETQFAAGTPCLSLDLSDSNLDNMEWLDITMPNSSSGLTPLSTTAPSMFSADFLDPQDLPLPWD
For B1, the binding entry is reported as “binds”.
